Measurements reported in PubChem BioAssay AID1508588 (Peter MacCallum Cancer Centre, 2020).

Assay: 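Knock-downs boosting vemurafenib effects on melanoma cell growth or lactate release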 (primary screen)
Cells: human WM266.4 melanoma cells (BRAF V600 mutant)
Reagent: siRNA pool against human genes, 40 nM
Time to read-out: 96 h from transfection to read-out
Treatment: vemurafenib 300 nM (about IC25), added 48 h after transfection, for 48 h; comparison arm got DMSO vehicle only
Measured: 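Cell gain (DAPI nuclei at end minus before drug, mean of two replicates) and medium lactate by absorbance per cell, both as ratio to non-targeting siRNA, also grouped into fold-change classes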
Reading the numbers: cell gain with vemurafenib: higher = more cell gain than with non-targeting siRNA; lactate per cell with vemurafenib: higher = more lactate made per cell
Rule for the call: 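Enhancement is called by pairing each knock-down's vehicle-arm and drug-arm fold-change classes for viability or glycolysis; which class combinations qualify is not given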
Calls: active = enhances vemurafenib effect; inactive = no enhancement seen
This is an unselected part of about 18,000 deposited reagents. 790 of all reagents (4.4%) count as active. 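Calls rest on a combination of fold-change classes in drug and vehicle arms, not all shown here.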 No sequences are given here.

| gene | cell gain with vemurafenib | lactate per cell with vemurafenib | outcome |
| --- | --- | --- | --- |
| NUDT21 | 0.48 | 1.08 | inactive |
| CENPN | 0.2 | 0.44 | inactive |
| RPL32 | -0.1 | -0.28 | inactive |
| LPCAT2 | 0.4 | 0.86 | inactive |
| CD70 | 1.18 | 0.72 | inactive |
| MUC4 | 0.56 | 1.35 | inactive |
| ZNF24 | 0.94 | 0.6 | inactive |
| FAM78B | 0.77 | 0.92 | inactive |
| SNRPB | 0.07 | 1.31 | inactive |
| RAB3A | 0.56 | 1.04 | inactive |
| C8orf44 | 0.65 | 1.38 | inactive |
| CD1C | 1.14 | 0.82 | inactive |
| CDK18 | 0.09 | 3.04 | inactive |
| HOXC9 | 0.97 | 0.48 | active |
| SPMIP9 | 0.27 | 1.05 | inactive |
| ESS2 | 0.24 | 0.4 | active |
| LRTM2 | 0.93 | 1.04 | inactive |
| CENPP | 0.34 | 1.79 | inactive |

Continued, starting with the last 4 of the part before.
| gene | cell gain with vemurafenib | lactate per cell with vemurafenib | outcome |
| --- | --- | --- | --- |
| SPMIP9 | 0.27 | 1.05 | inactive |
| ESS2 | 0.24 | 0.4 | active |
| LRTM2 | 0.93 | 1.04 | inactive |
| CENPP | 0.34 | 1.79 | inactive |
| ZNHIT1 | 0.35 | 1.25 | inactive |
| MUS81 | 0.69 | 0.65 | inactive |
| TRAPPC5 | 0.88 | 0.69 | inactive |
| CIDEA | 0.66 | 1.2 | inactive |
| PTCHD3 | 0.69 | 0.58 | inactive |
| CATSPER4 | 0.12 | 1.2 | inactive |
| KRABD2 | 0.74 | 0.58 | inactive |
| CD96 | 0.76 | 0.68 | inactive |
| ERC1 | 0.29 | 1.58 | inactive |
| RAB40A | 0.39 | 0.98 | inactive |
| PITHD1 | 0.66 | 0.62 | inactive |
| CARD14 | 0.34 | 0.36 | active |
| SLC25A40 | 0.51 | 0.93 | inactive |
| DCAF17 | 0.5 | 1.05 | inactive |
| MEIS3 | 1.52 | 0.36 | inactive |
| CRHR1 | 0.42 | 0.66 | active |
